In this series the target is T1, DSA polymerase K276C,Q451C (Bacillus stearothermophilus) (UniProt Q04957).
T1 sequence: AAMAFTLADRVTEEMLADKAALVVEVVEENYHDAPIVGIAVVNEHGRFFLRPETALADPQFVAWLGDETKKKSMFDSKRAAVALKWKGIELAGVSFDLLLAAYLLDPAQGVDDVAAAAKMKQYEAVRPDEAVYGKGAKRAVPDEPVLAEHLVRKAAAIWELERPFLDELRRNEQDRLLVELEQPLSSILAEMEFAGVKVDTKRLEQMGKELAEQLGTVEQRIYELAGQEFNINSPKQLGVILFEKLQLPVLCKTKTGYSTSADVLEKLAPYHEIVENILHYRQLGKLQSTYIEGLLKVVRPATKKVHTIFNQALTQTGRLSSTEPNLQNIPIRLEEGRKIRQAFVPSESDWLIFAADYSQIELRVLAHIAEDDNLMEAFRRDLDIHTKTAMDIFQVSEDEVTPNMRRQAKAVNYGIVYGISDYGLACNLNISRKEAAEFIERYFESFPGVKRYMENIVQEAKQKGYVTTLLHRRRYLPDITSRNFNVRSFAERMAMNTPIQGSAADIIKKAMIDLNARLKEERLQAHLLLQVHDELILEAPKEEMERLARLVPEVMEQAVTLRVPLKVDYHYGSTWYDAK
As to the kind of experiment: binding assay. To be noted: Cy-5 polymerase fluorescence in flow cell; 20 nM, 50 mM KCl, Sr2+, 47 C; purified recombinant protein.

Construct, isoform or probe ends are uncertain for at least one entry. Tags and fusion partners may be left off the protein sequences shown.

With “CCGATTCGTC (double strand) [RCA primed template yielding CCGATTCGTC]”, the binding result is “binds”.

These data come from patent publication US20180155698.
